The source of these data is publication PMC7819943, “Rice protein-binding microarrays: a tool to detect cis-acting elements near promoter regions in rice”.

Some of the results follow.

For this test, the target named is T1, OsSMF1 (Oryza sativa, UniProt Q6ZLB0 1-436).
T1 sequence: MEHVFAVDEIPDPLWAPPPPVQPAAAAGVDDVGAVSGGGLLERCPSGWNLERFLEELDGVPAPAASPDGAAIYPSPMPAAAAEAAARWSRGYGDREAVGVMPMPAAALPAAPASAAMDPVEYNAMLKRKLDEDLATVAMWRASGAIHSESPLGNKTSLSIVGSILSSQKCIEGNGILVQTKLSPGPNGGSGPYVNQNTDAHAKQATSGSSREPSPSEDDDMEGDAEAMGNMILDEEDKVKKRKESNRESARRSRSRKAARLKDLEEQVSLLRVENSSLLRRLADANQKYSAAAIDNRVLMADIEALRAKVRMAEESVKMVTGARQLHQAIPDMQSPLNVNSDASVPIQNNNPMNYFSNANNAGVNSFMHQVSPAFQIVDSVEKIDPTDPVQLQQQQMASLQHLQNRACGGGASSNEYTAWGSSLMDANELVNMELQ
Description: protein-binding microarray (RPBM); PBS, 2% BSA, 51.3 ng/ul salmon testes DNA, 50 uM zinc acetate, 200 nM TF, 25 C, 1 h; high values mean tight binding. Particulars: protein: recombinant; tags: N-terminal polyhistidine and DsRed monomer fusion (pET32a); chain copies: 2; label: CyDye5-dUTP incorporated in the synthesized complementary strand; 3' TTTTT single-stranded linker to array surface; dsDNA, one strand shown. In a few lines:
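Polyhistidine-tagged DsRed fusions of transcription factors, joined at the N-terminus, were expressed in E. coli BL21-CodonPlus and isolated on Ni–NTA. They were incubated at 200 nM for 1 h at 25 °C on a custom Agilent array, double-stranded and BSA-blocked, in PBS with 2% BSA, salmon testes DNA and 50 µM zinc acetate. The binding signal is per-feature fluorescence intensity (arbitrary units) read on an Axon 4000B scanner after washing.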
With “GTGGATAAATCATACACCTGGACTCCAGTCATTGCACTGACGGAGTCACCTAGTGCAG”, the binding signal is 3340 fluorescence intensity (a.u.). On to “CTTGTGACAGATGCAGACATACGTATAGCCACGTACTCCTCGGAGTCACCTAGTGCAG”, for which the binding signal was 7670 fluorescence intensity (a.u.). To “AACAAGTGGGTCCCACATCCGAGCCGAAGGAACGGAATCCCGGAGTCACCTAGTGCAG” belongs 8120 fluorescence intensity (a.u.); to “TTGGATGTTTGCCGTGGACAAGTGCTAACTGTCAAAACCCCGGAGTCACCTAGTGCAG”, 34900 fluorescence intensity (a.u.); to “TAGCGAGGTACCTATCATGACTTCGTCAGTCTCATATTTCCGGAGTCACCTAGTGCAG”, 3340 fluorescence intensity (a.u.). To “GGTTTAAAACGACACTTATTTCTAACAAAACGTAATAATTCGGAGTCACCTAGTGCAG” belongs 11400 fluorescence intensity (a.u.); to “ATGGGGAGGCGGCGAGTGGCCGGCGGGATAACGCACGACGCGGAGTCACCTAGTGCAG”, 3470 fluorescence intensity (a.u.); to “GTACGACAACCACATACAACCCATGTCTGACTCAACTAGTCGGAGTCACCTAGTGCAG”, 3540 fluorescence intensity (a.u.). To “GCATGCAGTTGACCTGGTCTCTCTGTCTGTATTTCAGCCGCGGAGTCACCTAGTGCAG” belongs 3730 fluorescence intensity (a.u.); to “TGGTGGTGGGGAGGGTATTTATACCGGCTGACGAGGCGTGCGGAGTCACCTAGTGCAG”, 8730 fluorescence intensity (a.u.).

As to “GAGATGCGGAGGGAGGGGAATGTTGGTGTGGCGGTGGCGACGGAGTCACCTAGTGCAG”, the binding signal was 3910 fluorescence intensity (a.u.). “GCGACTTGACCCCTGTAGCCTCGCGATCGTACGTGTCAACCGGAGTCACCTAGTGCAG”: the binding signal is 6100 fluorescence intensity (a.u.).

“TCAAATTGAAAGTTTCCAAAATTTTCAAATCTGGACTTGACGGAGTCACCTAGTGCAG”: the binding signal was 43500 fluorescence intensity (a.u.).

With “TCTGAACCCAAACCCACGTGGGGCCAGACCAGCAACGCAGCGGAGTCACCTAGTGCAG”, the binding signal is 3980 fluorescence intensity (a.u.). “TCATATTACTGTCTTAATTAATTCATCATGCTGCTGACAGCGGAGTCACCTAGTGCAG”: the binding signal is 3990 fluorescence intensity (a.u.).

On to “GAGTTCATCCTTATTGCTTTCTGTCTTGACATTTATCTTGCGGAGTCACCTAGTGCAG”, for which the binding signal is 28500 fluorescence intensity (a.u.).

For “AGTTCGAGCCTCTCTCATGACATCGTTGAACTTTATCGTGCGGAGTCACCTAGTGCAG”, the binding signal was 3380 fluorescence intensity (a.u.).

Consider “ACATCCGTTGCCTGGTGGCGCACTCACCCGTCGTGTGGATCGGAGTCACCTAGTGCAG”, for which the binding signal is 3820 fluorescence intensity (a.u.).

As for “CAGTTAATTTACTTGTGACGTATCGCTGGGAAGTTAATTTCGGAGTCACCTAGTGCAG”, the binding signal is 22000 fluorescence intensity (a.u.). For “GCCTCTACACCACAAGGAGAACAGTGGTGATGCCACACATCGGAGTCACCTAGTGCAG” the value was 4310 fluorescence intensity (a.u.); for “GCTTGCCGACGCCGACGCCGCCGCCGCCACCGCCGTGGCGCGGAGTCACCTAGTGCAG”, 4150 fluorescence intensity (a.u.); for “AGTTTTCATAAACTCCACATCATCAAGAAACTAGTACTAGCGGAGTCACCTAGTGCAG”, 5420 fluorescence intensity (a.u.).

For the sequence “AATAAATTATTTACATGATAATCGAGTTAGCAGTGATCGTCGGAGTCACCTAGTGCAG”, the binding signal was 16000 fluorescence intensity (a.u.). For “TTGCAACTTGCAACTTGCAACGTGCGTGCCGCGTGGGTGGCGGAGTCACCTAGTGCAG” the value was 4640 fluorescence intensity (a.u.); for “CTCTCTCTAGCGCAGCGTGCATGACGAGGACGGGCGGTGGCGGAGTCACCTAGTGCAG”, 4860 fluorescence intensity (a.u.).

For “TATTCTTGCACCATAACACTCCACGTAATACCATTATATGCGGAGTCACCTAGTGCAG”, the binding signal was 9310 fluorescence intensity (a.u.). For “CGGGAACCACGCGTCGAACACTTTCGGGCGTCACCAACAGCGGAGTCACCTAGTGCAG”, the binding signal is 4190 fluorescence intensity (a.u.). For the sequence “GTGAAGACCGAGCGAAGATTACGCCTCATCAGTCATCACCCGGAGTCACCTAGTGCAG”, the binding signal was 4110 fluorescence intensity (a.u.). For “CATGTCAGACAGTCCACGTCATCACCTTTCTCTCCCCTCTCGGAGTCACCTAGTGCAG” the value was 38200 fluorescence intensity (a.u.); for “TGCAAGATTGCAGCTACGCCAATGCGGCCCACGTAGTCGCCGGAGTCACCTAGTGCAG”, 5000 fluorescence intensity (a.u.); for “AGTCCACCGCGTCCTTGCGCGCCTACGCGAGTGCTTGTCCCGGAGTCACCTAGTGCAG”, 3330 fluorescence intensity (a.u.). To “GAGAGGCCCCAAGTGTGCTGACGCATCGAATTATTTACTCCGGAGTCACCTAGTGCAG” belongs 8280 fluorescence intensity (a.u.). Take “ATCGCCACCAGTGCGTGACGCCACTCCGTCGCGTCGCCGTCGGAGTCACCTAGTGCAG”: the binding signal is 4740 fluorescence intensity (a.u.). To “TCTCTCTCTTTCTCGTCTCCTCCTATCCGCGTCCATCTCTCGGAGTCACCTAGTGCAG” belongs 22400 fluorescence intensity (a.u.). For “CTTACCGTGTTATAGTAGCCACCCAGTCAGCCGCGCTAACCGGAGTCACCTAGTGCAG”, the binding signal was 3570 fluorescence intensity (a.u.).

On to “TCAGCCCGACGTTTCTGCTGCAAAACCACGGCCTGATTCCCGGAGTCACCTAGTGCAG”, for which the binding signal is 3490 fluorescence intensity (a.u.). Take “TTGCGACGGCCATCCTCCGCGCGCGTGACACCAACGCCACCGGAGTCACCTAGTGCAG”: the binding signal is 4880 fluorescence intensity (a.u.). For the sequence “ATGGAGACTTCTCACGCCAGACCCAAGTTTTGGCCTCCTCCGGAGTCACCTAGTGCAG”, the binding signal was 12900 fluorescence intensity (a.u.). Take “TCTCCTCCCGAACAACTTTCTCGAGGCCCGGCCCAACCCGCGGAGTCACCTAGTGCAG”: the binding signal was 5980 fluorescence intensity (a.u.). For “TGCTTCCGGCGGCATTACCTCCTCGTCCTCGTCCGACTCCCGGAGTCACCTAGTGCAG” the value was 3420 fluorescence intensity (a.u.); for “GATCTCAGCTCTGATCCATTCCATCCACGCCGCCGTCGCGCGGAGTCACCTAGTGCAG”, 3140 fluorescence intensity (a.u.); for “CGGCACCAAATCAGCGCCCGCCCGCGCCCACCCCACCGGACGGAGTCACCTAGTGCAG”, 3250 fluorescence intensity (a.u.).
